Experimental data taken from patent US20240016781A1, “TREATMENT OF KRAS MUTANT CANCERS” (MEI Pharma, Inc., priority 2020, published 2024).

Legend:
Assay in all cases: 72-hour CellTiter-Glo 2.0 growth inhibition screen (single agent, 9x9 combination dose matrix)
Type in all cases: cell-based
Gp2D = Gp2D (KRAS G12D), enhancer + MEI-522 (Voruciclib)
Method: (§1) Growth inhibition was determined using a 72-hour CellTiter-Glo®2.0 proliferation assay. Combination format was a 9×9 dose matrix. Six of the 20 cell lines received the original two combinations whilst the remaining 14 cell lines received two additional combinations resulting in four combinations in total. Results have been supplied as both Chalice Analyzer files (.mcc) and raw luminescence data.
(§2) Cell lines that have been preserved in liquid nitrogen are thawed and expanded in growth media (see Appendix I). Once cells have reached expected doubling times, screening begins. Cells are seeded in 25 μl of growth media in black 384-well tissue culture treated plates at 500 cells per well (as noted in Analyzer). Cells are equilibrated in assay plates via centrifugation and placed at 37° C. 5% CO2 for twenty-four hours before treatment. […] Compounds are transferred to assay plates using and Echo acoustic liquid handling system. […] of each compound was added at the appropriate concentration for all combination dose points. Therefore, final assay volume would be 25.05 μl. Assay plates are incubated with compound for 3 days and are then analyzed using CellTiter-Glo 2.0. All data points are collected via automated processes and are subject to quality control and analyzed.
(§3) If T≥V_0:100*(1−(T−V_0)/(V−V_0)) • where T is the signal measure for a test article, V is the untreated/vehicle-treated control measure, and Vo is the untreated/vehicle control measure at time zero (also colloquially referred as TO plates). This formula is derived from the Growth Inhibition calculation used in the National Cancer Institute's NCI-60 high throughput screen. For the purposes of this disclosure, all data analysis was performed in Growth Inhibition (except where noted).
(§4) Inhibition is also provided as a measure of cell viability. […] Inhibition of 100% represents no doubling of cell numbers during the treatment window. Both cytostatic and cytotoxic treatments can yield an Inhibition percentage of 100%. Inhibition percentage is calculated as the following: […]
(§5) The fractional inhibition for each component agent and combination point in the matrix is calculated relative to the median of all untreated/vehicle-treated control wells. The Synergy Score equation integrates the experimentally-observed activity volume at each point in the matrix in excess of a model surface numerically derived from the activity of the component agents using the Loewe model for additivity. Additional terms in the Synergy Score equation (above) are used to normalize for various dilution factors used for individual agents and to allow for comparison of synergy scores across an entire experiment. The inclusion of positive inhibition gating or an Idata multiplier removes noise near the zero-effect level, and biases results for synergistic interactions at that occur at high activity levels. Combinations with higher maximum Growth Inhibition (GI) effects or those which are synergistic at low concentrations will have higher Synergy Scores.
(§6) The CI is a rough estimate of how much drug was needed in combination relative to the single agent doses required to achieve the chosen effect level. CI values in the range of 0.5-0.7 are typical for in vitro measurements of current clinical combinations. The CI error (σCI) is calculated using standard error propagation through the CI calculation based on the isobologram errors. In the Chalice Analyzer, the Best CI is reported from the many CI values calculated for each Icut crossing combination. Among all the measured CI values, the one with the largest single-to-noise level (1−CI)/σCI is reported as the Best CI. Best CI Level is the effect level from which the CI is calculated.

SW837 = SW837 (KRAS G12C), enhancer + MEI-522 (Voruciclib)
Method: as §1, §2, §3, §4, §5, §6

SW48 KRAS (G12C/+) = conditions: enhancer + MEI-522 (Voruciclib)
Method: as §1, §2, §3, §4, §5, §6

LS-513 = LS-513 (KRAS G12D), enhancer + MEI-522 (Voruciclib)
Method: as §1, §2, §3, §4, §5, §6

NCI-H358 = conditions: NCl-H358 (KRAS G12C), enhancer + MEI-522 (Voruciclib)
Method: as §1, §2, §3, §4, §5, §6

TOV-21G = TOV-21G (KRAS G13C), enhancer + MEI-522 (Voruciclib)
Method: as §1, §2, §3, §4, §5, §6

AsPC-1 = AsPC-1 (KRAS G12D), enhancer + MEI-522 (Voruciclib)
Method: as §1, §2, §3, §4, §5, §6

Panc 04.03 = Panc 04.03 (KRAS G12D), enhancer + MEI-522 (Voruciclib)
Method: as §1, §2, §3, §4, §5, §6

SMILES | Best CI Level (Gp2D) | Best CI Level (SW837) | Best CI Level (SW48 KRAS (G12C/+)) | Best CI Level (LS-513) | Best CI Level (NCI-H358) | Best CI Level (TOV-21G) | Best CI Level (AsPC-1) | Best CI Level (Panc 04.03)
C=CC(=O)N1CCN(c2nc(=O)n(-c3c(C)ccnc3C(C)C)c3nc(-c4c(O)cccc4F)c(F)cc23)[C@@H](C)C1 [AMG510] | 175 | 95 | 130 | 20 | 25 | 25 | 20 | 45
CC[C@@H]1C(=O)N(C)c2cnc(Nc3ccc(C(=O)N[C@H]4CC[C@H](N5CCN(CC6CC6)CC5)CC4)cc3OC)nc2N1C(C)C [Volasertib] | 175 | 160 | 125 | 145 | 110 | 20 | 95 | 170
CN1CCN(c2ccc(OC(F)(F)F)c(Nc3ncc4c(n3)-c3c(c(C(N)=O)nn3CCO)CC4)c2)CC1 [Onvansertib] | 175 | 30 | 120 | 150 | 110 | 40 | 20 | 20
